Laboratory results taken from the NIST ThermoML archive (doi:10.1021/je1005483).
± gives the expanded uncertainty stated by the source.

What was measured:
[1] = molar heat capacity at constant pressure; conditions: 298.15 K; 101.3 kPa; Liquid; Flow calorimetry
[2] = molar heat capacity at constant pressure; xn = mol fraction of the nth substance listed; conditions: 298.15 K, 101.3 kPa, Liquid, Flow calorimetry

## CC(=O)N(C)C [N,N-dimethylethanamide]
[1]
  molar heat capacity at constant pressure: 175.49 ± 1.1 J/K/mol

## CC(=O)N(C)C [N,N-dimethylethanamide] + CC#N
[2]; x1 = 0.03032
  molar heat capacity at constant pressure: 94.92 ± 0.59 J/K/mol
[2]; x1 = 0.05087
  molar heat capacity at constant pressure: 96.66 ± 0.6 J/K/mol
[2]; x1 = 0.08015
  molar heat capacity at constant pressure: 99.14 ± 0.61 J/K/mol
[2]; x1 = 0.1018
  molar heat capacity at constant pressure: 100.97 ± 0.62 J/K/mol
[2]; x1 = 0.1299
  molar heat capacity at constant pressure: 103.36 ± 0.64 J/K/mol
[2]; x1 = 0.1504
  molar heat capacity at constant pressure: 105.1 ± 0.65 J/K/mol
[2]; x1 = 0.1712
  molar heat capacity at constant pressure: 106.87 ± 0.66 J/K/mol
[2]; x1 = 0.2014
  molar heat capacity at constant pressure: 109.43 ± 0.68 J/K/mol
[2]; x1 = 0.2569
  molar heat capacity at constant pressure: 114.15 ± 0.71 J/K/mol
[2]; x1 = 0.3023
  molar heat capacity at constant pressure: 118.01 ± 0.73 J/K/mol
[2]; x1 = 0.3514
  molar heat capacity at constant pressure: 122.17 ± 0.75 J/K/mol
[2]; x1 = 0.4024
  molar heat capacity at constant pressure: 126.48 ± 0.78 J/K/mol
[2]; x1 = 0.501
  molar heat capacity at constant pressure: 134.78 ± 0.83 J/K/mol
[2]; x1 = 0.5509
  molar heat capacity at constant pressure: 138.97 ± 0.86 J/K/mol
[2]; x1 = 0.5996
  molar heat capacity at constant pressure: 143.03 ± 0.88 J/K/mol
[2]; x1 = 0.6588
  molar heat capacity at constant pressure: 147.96 ± 0.91 J/K/mol
[2]; x1 = 0.7505
  molar heat capacity at constant pressure: 155.56 ± 0.96 J/K/mol
[2]; x1 = 0.8497
  molar heat capacity at constant pressure: 163.68 ± 1 J/K/mol
[2]; x1 = 0.9004
  molar heat capacity at constant pressure: 167.77 ± 1 J/K/mol
[2]; x1 = 0.9286
  molar heat capacity at constant pressure: 170 ± 1.1 J/K/mol
[2]; x1 = 0.9506
  molar heat capacity at constant pressure: 171.73 ± 1.1 J/K/mol
[2]; x1 = 1
  molar heat capacity at constant pressure: 175.49 ± 1.1 J/K/mol
